From paper PMC7594292, “Two conformations of DNA polymerase D-PCNA-DNA, an archaeal replisome complex, revealed by cryo-electron microscopy” (BMC Biology, 2020)
For at least one entry, the source does not settle the construct or the ends of the probe. At least one verdict rests on a figure or table, not on a statement of the authors. For some assays here: Protein sequences can lack the tags named with them.

Columns and labels:
[1] = biological target: T1, DP2CTD (Thermococcus kodakarensis) (UniProt Q5JET0); test: EMSA; conditions: 2 mM MgCl2, weaker than DP1-DP2CTD; EMSA: 20 mM Tris-HCl pH 8.0, 10 mM KCl, 10 mM (NH4)2SO4, 1 mM DTT, 0.1 mg/ml BSA, 2 mM MgCl2, 40 C 10 min, 0.8% agarose 0.1x TAE; recombinant protein; residues 1474-1798; protein details: His; label: 5' Cy5; single-stranded DNA
T1 sequence (looked up): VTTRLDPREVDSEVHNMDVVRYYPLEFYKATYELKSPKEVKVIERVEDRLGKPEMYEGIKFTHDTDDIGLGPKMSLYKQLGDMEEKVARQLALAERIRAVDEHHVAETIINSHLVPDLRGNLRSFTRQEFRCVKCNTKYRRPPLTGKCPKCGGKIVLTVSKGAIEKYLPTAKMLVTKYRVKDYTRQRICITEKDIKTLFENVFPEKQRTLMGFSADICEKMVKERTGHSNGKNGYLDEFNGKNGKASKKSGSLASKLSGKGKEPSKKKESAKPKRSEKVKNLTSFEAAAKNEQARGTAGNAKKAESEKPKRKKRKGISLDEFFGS

[2] = system: DP1 (PolD small subunit) + DP2CTD; test: EMSA; conditions: 2 mM MgCl2; EMSA: 20 mM Tris-HCl pH 8.0, 10 mM KCl, 10 mM (NH4)2SO4, 1 mM DTT, 0.1 mg/ml BSA, 2 mM MgCl2, 40 C 10 min, 0.8% agarose 0.1x TAE; recombinant protein; protein details: His; label: 5' Cy5; single-stranded DNA

Sequence: CGAACTGCCTGGAATCCTGACGACATGTAGCG [ssDNA Cy5-pri32]
- binding result [1]: binds
- binding result [2]: binds
